The list shows a part of the results.
These targets were tested with CC(C)(C)Cn1c(N)nc2ccc(-c3[nH]c(C(C)(C)C)nc3-c3ccc(F)cc3)nc21 [ralimetinib] (assay: log2 fold change, soluble protein after heating vs DMSO (PISA); higher = thermal stabilisation; K562 cells, 10 uM, 30 min; active = over 0.2 and 3.5 SD of the protein, either way, in both replicates (recomputed)).
In short: (§1)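 K562 cells (2×10^6 cells/mL) were treated with 10 μM compound for 30 min, and aliquots were heated for 3 min over 48°C-58°C. Pooled aliquots were extracted in PBS with 0.5% NP-40 at 4°C, and the supernatant after 21,000xg for 90 min was measured by TMTpro 16plex LC-MS/MS with channel sums equalised. Reported thermal stability, relative to control samples and from duplicates, is a log2 fold change.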

Protein sequences, listed by entry. Tags and fused reporters are not part of them. Lines headed by an entry give the natural chain unless they say otherwise; changes in a name come on top.
UniProt Q8TD22: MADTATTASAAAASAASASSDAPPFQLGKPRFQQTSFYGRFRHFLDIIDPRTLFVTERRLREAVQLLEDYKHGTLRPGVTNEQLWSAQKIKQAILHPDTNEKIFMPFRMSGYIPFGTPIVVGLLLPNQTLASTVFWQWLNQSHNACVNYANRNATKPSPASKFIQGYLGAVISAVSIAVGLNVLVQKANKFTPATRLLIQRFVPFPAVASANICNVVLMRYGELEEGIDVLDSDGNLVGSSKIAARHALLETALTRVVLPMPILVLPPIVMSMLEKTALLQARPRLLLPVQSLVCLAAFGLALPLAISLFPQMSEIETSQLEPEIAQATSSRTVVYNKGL
UniProt Q8IXJ6: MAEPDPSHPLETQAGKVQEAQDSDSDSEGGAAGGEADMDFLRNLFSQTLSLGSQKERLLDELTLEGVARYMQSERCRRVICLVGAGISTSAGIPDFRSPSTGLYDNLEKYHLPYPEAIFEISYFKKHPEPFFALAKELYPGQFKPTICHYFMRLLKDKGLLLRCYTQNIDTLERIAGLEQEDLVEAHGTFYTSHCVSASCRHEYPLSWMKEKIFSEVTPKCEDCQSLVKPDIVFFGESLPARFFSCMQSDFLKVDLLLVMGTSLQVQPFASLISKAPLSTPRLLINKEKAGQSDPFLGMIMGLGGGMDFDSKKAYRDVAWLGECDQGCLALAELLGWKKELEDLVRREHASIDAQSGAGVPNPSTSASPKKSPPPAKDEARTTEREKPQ
UniProt Q99720, whole entry, looked up: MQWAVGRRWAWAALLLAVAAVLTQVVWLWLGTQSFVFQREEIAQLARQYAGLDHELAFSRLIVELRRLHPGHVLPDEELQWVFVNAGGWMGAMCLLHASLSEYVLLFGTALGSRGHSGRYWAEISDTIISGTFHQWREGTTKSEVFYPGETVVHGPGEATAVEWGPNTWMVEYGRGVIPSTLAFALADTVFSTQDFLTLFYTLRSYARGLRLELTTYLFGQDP
UniProt O60613, whole entry, looked up: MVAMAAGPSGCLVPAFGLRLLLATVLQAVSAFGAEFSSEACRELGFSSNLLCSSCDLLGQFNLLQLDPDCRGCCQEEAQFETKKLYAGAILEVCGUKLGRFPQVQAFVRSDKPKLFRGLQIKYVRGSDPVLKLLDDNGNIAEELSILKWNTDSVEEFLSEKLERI
UniProt O43765: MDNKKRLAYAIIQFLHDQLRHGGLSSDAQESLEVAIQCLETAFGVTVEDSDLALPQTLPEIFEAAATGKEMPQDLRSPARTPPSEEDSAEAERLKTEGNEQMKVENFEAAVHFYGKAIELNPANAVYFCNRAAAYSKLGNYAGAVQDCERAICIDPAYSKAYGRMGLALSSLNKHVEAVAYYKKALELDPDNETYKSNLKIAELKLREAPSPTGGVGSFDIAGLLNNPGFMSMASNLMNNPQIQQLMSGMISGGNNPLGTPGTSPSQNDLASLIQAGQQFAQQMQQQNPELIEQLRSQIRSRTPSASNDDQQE
UniProt Q8NBJ9: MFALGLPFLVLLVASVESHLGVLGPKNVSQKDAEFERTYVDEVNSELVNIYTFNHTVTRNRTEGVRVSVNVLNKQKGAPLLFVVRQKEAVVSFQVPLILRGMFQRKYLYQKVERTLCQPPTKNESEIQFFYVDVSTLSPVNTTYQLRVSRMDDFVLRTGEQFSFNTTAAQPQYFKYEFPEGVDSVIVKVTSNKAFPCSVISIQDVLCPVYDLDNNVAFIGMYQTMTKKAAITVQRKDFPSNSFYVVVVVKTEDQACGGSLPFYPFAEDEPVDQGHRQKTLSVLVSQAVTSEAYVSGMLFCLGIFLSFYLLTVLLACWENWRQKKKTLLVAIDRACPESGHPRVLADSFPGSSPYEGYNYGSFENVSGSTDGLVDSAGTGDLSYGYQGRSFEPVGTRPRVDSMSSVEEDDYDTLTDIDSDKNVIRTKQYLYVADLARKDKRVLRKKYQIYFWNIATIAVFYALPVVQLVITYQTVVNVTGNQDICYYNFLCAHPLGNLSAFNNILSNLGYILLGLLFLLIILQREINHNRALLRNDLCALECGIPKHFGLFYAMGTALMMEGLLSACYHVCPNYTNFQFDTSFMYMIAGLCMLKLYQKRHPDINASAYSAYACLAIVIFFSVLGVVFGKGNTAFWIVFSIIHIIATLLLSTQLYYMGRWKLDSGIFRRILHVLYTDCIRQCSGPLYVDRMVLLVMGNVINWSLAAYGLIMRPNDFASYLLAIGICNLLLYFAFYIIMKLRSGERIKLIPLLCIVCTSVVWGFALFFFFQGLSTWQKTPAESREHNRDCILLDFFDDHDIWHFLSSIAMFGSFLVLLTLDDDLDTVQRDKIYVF
UniProt Q96ST3: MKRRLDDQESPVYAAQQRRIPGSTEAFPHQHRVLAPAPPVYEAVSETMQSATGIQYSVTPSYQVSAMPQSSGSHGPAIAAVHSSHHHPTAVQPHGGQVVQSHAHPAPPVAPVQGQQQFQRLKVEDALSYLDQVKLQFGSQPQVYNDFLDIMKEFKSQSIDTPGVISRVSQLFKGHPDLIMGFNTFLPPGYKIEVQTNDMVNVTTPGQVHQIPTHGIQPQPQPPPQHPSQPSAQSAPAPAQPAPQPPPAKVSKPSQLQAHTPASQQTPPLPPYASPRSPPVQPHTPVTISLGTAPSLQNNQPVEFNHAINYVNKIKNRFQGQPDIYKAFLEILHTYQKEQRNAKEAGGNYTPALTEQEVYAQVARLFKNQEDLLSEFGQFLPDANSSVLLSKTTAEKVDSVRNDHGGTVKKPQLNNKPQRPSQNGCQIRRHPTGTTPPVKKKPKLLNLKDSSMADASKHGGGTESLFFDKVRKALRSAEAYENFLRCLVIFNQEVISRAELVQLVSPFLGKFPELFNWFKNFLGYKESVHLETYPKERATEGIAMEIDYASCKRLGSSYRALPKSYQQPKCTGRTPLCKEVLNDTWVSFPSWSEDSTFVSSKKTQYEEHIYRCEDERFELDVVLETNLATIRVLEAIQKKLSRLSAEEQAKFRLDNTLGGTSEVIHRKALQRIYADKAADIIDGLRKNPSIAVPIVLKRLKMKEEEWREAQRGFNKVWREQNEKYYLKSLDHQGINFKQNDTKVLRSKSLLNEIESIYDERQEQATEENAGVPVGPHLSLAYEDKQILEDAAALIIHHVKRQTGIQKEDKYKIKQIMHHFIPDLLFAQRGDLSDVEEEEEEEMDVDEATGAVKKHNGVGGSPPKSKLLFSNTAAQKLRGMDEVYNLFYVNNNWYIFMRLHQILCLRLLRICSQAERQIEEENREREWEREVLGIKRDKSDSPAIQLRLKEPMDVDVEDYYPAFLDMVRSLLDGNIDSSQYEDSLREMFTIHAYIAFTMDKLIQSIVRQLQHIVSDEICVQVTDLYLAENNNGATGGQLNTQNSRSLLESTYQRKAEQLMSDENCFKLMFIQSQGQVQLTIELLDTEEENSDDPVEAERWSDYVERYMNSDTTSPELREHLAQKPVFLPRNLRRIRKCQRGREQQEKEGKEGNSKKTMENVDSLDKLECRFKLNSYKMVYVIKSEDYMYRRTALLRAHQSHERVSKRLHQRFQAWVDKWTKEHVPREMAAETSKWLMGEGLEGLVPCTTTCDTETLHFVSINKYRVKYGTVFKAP
UniProt Q96EE3: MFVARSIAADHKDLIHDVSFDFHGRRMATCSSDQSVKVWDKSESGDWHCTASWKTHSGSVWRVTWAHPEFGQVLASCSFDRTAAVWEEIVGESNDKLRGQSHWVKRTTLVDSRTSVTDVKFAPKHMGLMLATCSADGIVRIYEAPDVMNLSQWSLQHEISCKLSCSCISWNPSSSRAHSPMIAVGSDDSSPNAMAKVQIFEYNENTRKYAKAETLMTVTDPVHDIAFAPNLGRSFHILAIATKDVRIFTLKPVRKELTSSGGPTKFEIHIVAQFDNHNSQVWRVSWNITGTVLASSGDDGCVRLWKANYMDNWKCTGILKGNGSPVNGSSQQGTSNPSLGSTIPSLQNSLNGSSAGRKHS
UniProt O43236: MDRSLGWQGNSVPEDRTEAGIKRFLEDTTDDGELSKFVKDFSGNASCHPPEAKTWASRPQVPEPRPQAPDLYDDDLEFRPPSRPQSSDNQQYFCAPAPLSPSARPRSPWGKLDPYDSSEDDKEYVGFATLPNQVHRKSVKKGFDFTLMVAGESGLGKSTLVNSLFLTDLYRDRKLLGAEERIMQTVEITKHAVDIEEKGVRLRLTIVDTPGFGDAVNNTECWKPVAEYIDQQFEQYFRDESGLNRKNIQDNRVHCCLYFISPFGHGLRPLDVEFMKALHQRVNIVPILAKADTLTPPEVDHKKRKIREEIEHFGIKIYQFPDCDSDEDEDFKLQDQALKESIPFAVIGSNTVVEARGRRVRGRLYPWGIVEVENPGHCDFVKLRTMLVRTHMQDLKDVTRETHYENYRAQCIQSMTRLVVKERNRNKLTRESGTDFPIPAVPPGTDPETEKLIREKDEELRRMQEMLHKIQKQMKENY
UniProt Q8IZQ5, whole entry, looked up: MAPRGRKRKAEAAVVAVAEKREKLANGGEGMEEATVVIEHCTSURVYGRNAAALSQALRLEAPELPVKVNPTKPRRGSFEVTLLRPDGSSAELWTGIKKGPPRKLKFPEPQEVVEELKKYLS
UniProt Q53H47: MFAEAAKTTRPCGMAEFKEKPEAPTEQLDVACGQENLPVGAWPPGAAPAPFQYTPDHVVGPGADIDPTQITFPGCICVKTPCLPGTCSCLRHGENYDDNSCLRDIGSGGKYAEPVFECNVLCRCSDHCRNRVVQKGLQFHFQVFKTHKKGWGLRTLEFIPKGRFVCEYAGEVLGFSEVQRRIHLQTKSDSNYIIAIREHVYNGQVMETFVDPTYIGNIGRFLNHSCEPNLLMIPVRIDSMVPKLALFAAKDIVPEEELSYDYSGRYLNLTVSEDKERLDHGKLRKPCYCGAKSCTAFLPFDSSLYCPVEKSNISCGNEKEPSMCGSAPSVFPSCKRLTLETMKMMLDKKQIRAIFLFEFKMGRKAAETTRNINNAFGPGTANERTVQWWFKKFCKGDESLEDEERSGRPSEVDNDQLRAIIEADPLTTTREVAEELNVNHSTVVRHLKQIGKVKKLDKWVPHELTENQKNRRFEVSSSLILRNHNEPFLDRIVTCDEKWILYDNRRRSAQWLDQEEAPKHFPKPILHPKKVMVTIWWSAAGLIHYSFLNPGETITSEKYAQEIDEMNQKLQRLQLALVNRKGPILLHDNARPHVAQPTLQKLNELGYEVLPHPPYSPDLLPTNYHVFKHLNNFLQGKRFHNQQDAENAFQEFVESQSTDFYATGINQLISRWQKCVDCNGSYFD
UniProt P63208, whole entry, looked up: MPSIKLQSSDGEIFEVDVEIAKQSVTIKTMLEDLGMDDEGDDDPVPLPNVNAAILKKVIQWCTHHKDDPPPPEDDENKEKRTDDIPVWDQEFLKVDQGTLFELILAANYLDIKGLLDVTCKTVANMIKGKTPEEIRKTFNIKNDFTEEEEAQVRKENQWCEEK
UniProt Q9NR46: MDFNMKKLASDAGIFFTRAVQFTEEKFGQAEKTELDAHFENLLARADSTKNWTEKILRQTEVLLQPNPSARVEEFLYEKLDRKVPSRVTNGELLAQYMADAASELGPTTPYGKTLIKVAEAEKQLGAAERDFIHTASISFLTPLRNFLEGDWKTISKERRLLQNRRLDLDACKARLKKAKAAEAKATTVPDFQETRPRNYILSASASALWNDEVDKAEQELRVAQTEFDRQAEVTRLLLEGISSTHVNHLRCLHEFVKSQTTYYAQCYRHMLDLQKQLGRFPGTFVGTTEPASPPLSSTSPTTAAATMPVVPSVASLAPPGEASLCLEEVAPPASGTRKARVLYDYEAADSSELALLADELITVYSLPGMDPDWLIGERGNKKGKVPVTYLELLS
UniProt Q99611, whole entry, looked up: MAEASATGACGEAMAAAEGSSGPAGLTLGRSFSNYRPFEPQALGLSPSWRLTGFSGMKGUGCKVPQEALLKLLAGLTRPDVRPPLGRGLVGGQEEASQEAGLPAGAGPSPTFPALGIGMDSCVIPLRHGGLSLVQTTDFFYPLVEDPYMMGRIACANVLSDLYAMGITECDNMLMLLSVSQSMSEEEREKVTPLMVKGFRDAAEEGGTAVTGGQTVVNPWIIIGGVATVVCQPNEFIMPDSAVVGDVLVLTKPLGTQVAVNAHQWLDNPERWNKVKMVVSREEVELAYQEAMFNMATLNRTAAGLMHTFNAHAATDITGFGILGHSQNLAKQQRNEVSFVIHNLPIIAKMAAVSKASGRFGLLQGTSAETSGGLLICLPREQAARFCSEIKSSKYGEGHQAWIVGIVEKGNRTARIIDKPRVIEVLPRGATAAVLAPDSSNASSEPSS
UniProt P05543: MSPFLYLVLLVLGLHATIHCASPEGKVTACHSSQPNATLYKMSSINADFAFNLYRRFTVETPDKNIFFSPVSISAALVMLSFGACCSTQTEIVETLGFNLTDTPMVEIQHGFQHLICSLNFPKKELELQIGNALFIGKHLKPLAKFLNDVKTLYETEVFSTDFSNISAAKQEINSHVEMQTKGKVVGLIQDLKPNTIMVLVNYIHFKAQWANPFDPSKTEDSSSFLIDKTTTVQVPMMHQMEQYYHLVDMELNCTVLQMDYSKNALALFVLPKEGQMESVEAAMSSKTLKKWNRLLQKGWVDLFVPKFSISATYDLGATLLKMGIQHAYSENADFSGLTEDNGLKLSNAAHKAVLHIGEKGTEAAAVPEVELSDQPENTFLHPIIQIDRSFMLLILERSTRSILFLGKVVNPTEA

log2 fold change, inactive:
SHC1 isoform 6 (UniProt P29353) -0.044
SERINC3 (UniProt Q13530) -0.14
SEL1L3 (UniProt Q68CR1) -0.003
SFXN5 (UniProt Q8TD22) -0.001
SH3GL1 (UniProt Q99961) 0.052
SEPTIN5 (UniProt Q99719) -0.084
SIRT2 (UniProt Q8IXJ6) -0.023
SIGMAR1 (UniProt Q99720) -0.057
SELENOF (UniProt O60613) 0.023

The targets below were run with CC(C)(O)CC(=O)NCCn1ccc2ncnc(Nc3ccc(Oc4cccc(C(F)(F)F)c4)c(Cl)c3)c21 in the same assay as above.
In short: as §1

log2 fold change, inactive:
SFXN2 (UniProt Q96NB2) -0.039
SESN2 (UniProt P58004) -0.049
SGPL1 (UniProt O95470) 0.017
SGTA (UniProt O43765) 0.002
SIDT2 isoform 2 (UniProt Q8NBJ9) -0.021
SHOC2 (UniProt Q9UQ13) -0.024
SEPSECS (UniProt Q9HD40) 0.067
SERINC1 (UniProt Q9NRX5) -0.235
SERPINF1 (UniProt P36955) 0.122
SIN3A (UniProt Q96ST3) -0.113
SEH1L isoform 1 (UniProt Q96EE3) 0.03
SETD3 (UniProt Q86TU7) -0.013
SEPTIN9 (UniProt Q9UHD8) -0.02
SEPTIN4 isoform 4 (UniProt O43236) -0.162
SHCBP1 (UniProt Q8NEM2) -0.121
SENP6 (UniProt Q9GZR1) -0.058
SELENOH (UniProt Q8IZQ5) -0.017
SETMAR (UniProt Q53H47) 0.047
SKP1 (UniProt P63208) -0.045
SH3GLB2 (UniProt Q9NR46) 0.028
SEPHS2 (UniProt Q99611) -0.012
SERPINA7 (UniProt P05543) 0.314
SERPINB6, A0A087X1N8 0.017
SHC1 isoform 6 (UniProt P29353) 0.007
SERINC3 (UniProt Q13530) -0.304
SEL1L3 (UniProt Q68CR1) -0.006
SFXN5 (UniProt Q8TD22) -0.175
SH3GL1 (UniProt Q99961) -0.097
SEPTIN5 (UniProt Q99719) -0.03
SIRT2 (UniProt Q8IXJ6) 0.041
SIGMAR1 (UniProt Q99720) 0.024
SELENOF (UniProt O60613) 0.012

Reference: the supplement of paper PMC10849652
